Test results from the supplement of paper PMC10849652.
Some of the results follow.

Sequences of proteins named here, by UniProt entry; tags and fusion partners are left off. A change or cut given only in a name is not applied to a line headed by its entry.
UniProt Q4VC31: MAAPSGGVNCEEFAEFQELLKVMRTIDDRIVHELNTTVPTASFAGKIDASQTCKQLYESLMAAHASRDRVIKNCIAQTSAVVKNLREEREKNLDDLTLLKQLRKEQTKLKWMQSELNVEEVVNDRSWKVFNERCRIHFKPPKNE
UniProt Q86X55: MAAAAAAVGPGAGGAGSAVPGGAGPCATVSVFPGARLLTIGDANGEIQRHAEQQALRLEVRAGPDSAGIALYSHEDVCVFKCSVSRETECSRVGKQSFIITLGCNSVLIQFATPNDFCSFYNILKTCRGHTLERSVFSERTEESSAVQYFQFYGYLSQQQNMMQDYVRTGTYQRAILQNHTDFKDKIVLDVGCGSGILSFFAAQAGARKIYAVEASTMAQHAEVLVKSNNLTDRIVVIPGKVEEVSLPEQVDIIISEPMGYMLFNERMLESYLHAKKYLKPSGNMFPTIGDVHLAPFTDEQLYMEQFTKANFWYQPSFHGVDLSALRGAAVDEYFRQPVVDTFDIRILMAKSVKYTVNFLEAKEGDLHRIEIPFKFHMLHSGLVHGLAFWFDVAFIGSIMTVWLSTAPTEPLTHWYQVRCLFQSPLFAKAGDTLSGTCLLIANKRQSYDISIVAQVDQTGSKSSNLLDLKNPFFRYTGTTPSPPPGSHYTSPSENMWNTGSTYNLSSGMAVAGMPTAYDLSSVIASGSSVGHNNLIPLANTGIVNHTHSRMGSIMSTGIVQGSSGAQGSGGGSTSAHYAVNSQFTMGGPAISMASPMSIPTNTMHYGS
UniProt Q8N4S0: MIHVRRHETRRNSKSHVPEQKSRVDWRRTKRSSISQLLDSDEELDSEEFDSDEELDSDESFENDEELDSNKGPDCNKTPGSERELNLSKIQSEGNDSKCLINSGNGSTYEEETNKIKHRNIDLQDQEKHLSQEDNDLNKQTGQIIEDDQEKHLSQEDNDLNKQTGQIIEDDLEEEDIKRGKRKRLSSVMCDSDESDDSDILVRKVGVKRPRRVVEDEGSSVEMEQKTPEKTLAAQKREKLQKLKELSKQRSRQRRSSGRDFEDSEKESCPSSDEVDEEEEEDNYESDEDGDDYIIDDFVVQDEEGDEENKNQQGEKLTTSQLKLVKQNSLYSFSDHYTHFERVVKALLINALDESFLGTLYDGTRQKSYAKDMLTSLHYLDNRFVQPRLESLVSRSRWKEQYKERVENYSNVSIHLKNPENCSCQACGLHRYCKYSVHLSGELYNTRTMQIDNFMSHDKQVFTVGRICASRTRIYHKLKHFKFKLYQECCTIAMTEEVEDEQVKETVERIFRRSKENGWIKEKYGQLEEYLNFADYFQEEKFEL
UniProt Q96CT7: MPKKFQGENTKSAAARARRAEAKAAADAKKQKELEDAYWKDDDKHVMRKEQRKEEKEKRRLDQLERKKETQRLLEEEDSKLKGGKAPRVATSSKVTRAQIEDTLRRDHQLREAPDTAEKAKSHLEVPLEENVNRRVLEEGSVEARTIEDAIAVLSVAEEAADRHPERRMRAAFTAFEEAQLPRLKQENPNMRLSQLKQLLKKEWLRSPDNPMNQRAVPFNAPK
UniProt P83916, whole entry, looked up: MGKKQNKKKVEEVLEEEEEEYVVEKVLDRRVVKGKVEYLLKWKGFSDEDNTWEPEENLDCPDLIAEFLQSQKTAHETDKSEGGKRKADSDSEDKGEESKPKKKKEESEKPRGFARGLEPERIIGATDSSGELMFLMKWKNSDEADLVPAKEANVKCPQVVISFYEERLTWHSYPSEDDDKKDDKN
UniProt P04040: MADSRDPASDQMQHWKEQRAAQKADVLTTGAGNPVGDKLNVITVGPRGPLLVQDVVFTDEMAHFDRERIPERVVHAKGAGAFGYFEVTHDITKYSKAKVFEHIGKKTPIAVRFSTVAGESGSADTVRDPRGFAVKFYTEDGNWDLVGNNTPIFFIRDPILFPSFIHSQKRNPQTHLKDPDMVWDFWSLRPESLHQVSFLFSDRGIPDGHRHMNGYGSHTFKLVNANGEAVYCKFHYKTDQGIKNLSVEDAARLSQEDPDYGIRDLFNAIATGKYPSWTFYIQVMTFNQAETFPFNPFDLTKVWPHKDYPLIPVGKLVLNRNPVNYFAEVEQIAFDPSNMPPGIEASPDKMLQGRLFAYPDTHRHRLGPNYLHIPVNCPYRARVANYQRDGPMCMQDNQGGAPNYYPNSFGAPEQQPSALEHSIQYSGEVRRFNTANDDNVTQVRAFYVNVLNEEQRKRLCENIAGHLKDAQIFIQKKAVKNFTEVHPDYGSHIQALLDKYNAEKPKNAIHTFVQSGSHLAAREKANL
UniProt P35520: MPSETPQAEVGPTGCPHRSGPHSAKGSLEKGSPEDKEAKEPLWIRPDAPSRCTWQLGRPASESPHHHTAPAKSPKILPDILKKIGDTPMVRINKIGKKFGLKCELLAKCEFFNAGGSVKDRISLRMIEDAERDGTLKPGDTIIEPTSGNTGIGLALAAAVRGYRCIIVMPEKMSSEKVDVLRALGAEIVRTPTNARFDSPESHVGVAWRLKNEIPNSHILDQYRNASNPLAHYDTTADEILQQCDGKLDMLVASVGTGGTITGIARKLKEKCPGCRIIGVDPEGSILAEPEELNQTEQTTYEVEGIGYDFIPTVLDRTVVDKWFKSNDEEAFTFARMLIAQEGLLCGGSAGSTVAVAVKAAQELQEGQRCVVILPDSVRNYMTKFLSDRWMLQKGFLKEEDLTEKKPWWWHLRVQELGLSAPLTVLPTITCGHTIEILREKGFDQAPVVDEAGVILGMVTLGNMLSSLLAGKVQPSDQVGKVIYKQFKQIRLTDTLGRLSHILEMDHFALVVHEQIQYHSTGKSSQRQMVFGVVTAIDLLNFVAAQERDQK
UniProt Q6P1N0: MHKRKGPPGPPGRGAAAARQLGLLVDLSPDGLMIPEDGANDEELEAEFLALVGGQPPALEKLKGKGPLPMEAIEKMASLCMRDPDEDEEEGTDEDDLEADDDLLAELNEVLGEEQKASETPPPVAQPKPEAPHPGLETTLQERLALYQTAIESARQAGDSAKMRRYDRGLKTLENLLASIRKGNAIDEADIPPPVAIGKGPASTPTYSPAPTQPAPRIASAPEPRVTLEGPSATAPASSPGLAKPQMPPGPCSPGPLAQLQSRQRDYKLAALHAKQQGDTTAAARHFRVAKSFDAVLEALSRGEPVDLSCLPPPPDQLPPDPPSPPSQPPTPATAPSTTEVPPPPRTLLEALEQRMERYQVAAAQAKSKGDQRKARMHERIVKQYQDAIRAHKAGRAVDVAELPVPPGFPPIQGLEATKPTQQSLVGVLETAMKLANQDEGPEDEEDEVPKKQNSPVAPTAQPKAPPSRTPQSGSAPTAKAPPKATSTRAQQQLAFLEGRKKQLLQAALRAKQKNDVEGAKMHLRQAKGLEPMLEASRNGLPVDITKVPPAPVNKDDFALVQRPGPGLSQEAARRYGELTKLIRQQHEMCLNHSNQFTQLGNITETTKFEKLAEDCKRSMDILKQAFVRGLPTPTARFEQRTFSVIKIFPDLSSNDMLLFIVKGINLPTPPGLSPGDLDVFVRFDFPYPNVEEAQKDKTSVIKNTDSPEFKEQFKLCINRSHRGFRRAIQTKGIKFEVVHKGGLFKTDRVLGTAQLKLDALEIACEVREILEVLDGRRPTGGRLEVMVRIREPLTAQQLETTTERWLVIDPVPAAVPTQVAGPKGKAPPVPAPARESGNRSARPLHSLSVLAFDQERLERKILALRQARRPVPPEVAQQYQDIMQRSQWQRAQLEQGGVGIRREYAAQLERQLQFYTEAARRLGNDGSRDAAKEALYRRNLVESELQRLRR
UniProt Q9Y2G2: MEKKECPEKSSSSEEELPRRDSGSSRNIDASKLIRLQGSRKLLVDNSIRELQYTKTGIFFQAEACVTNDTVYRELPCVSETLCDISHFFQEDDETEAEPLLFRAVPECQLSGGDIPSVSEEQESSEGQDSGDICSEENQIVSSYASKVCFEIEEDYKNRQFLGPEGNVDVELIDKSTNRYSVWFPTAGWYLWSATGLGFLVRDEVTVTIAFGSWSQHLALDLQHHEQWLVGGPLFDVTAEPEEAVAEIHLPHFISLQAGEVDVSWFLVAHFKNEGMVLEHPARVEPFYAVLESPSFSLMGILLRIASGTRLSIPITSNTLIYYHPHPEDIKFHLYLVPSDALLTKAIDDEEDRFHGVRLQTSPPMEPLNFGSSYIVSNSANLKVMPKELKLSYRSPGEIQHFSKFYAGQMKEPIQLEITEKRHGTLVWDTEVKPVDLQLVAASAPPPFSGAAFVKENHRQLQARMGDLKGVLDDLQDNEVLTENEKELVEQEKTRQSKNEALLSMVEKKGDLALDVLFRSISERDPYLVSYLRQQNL
UniProt Q13951, whole entry, looked up: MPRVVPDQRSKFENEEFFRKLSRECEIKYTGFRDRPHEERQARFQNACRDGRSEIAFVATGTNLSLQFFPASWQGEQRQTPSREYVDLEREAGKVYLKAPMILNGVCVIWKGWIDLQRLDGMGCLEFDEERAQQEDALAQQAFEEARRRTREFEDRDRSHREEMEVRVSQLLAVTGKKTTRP
UniProt Q7Z6B0: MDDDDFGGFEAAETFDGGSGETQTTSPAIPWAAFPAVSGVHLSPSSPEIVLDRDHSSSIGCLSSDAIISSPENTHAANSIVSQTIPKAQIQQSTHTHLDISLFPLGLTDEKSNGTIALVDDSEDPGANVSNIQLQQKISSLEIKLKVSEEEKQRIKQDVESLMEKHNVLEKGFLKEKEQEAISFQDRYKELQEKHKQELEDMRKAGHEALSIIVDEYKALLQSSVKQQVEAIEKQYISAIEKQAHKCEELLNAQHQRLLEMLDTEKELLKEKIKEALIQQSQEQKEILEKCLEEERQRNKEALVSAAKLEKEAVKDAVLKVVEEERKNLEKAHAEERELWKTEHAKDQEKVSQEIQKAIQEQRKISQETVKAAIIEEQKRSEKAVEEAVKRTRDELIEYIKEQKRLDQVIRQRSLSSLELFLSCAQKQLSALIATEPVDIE
UniProt Q99832: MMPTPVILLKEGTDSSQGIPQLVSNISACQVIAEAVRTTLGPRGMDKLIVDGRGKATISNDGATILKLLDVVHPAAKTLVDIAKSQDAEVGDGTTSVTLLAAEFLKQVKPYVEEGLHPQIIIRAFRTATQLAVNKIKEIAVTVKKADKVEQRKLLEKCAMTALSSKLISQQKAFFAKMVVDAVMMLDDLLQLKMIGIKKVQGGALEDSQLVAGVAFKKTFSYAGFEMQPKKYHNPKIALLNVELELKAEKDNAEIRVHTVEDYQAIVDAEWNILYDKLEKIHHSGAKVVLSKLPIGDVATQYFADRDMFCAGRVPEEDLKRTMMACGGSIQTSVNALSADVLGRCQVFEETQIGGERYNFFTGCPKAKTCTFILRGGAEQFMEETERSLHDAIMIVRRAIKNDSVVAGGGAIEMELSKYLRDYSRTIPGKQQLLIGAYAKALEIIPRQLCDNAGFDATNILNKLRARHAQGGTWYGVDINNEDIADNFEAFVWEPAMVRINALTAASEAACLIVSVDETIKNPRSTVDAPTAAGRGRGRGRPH
UniProt A6NHX0: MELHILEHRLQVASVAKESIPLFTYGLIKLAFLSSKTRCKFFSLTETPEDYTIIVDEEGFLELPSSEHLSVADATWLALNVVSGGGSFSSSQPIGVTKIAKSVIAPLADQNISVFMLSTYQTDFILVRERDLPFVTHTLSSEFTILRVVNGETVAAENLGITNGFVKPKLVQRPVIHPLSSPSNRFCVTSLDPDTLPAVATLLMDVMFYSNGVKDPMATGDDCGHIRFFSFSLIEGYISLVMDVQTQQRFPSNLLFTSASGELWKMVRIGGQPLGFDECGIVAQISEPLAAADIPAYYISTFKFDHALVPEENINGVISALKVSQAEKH
UniProt O75081: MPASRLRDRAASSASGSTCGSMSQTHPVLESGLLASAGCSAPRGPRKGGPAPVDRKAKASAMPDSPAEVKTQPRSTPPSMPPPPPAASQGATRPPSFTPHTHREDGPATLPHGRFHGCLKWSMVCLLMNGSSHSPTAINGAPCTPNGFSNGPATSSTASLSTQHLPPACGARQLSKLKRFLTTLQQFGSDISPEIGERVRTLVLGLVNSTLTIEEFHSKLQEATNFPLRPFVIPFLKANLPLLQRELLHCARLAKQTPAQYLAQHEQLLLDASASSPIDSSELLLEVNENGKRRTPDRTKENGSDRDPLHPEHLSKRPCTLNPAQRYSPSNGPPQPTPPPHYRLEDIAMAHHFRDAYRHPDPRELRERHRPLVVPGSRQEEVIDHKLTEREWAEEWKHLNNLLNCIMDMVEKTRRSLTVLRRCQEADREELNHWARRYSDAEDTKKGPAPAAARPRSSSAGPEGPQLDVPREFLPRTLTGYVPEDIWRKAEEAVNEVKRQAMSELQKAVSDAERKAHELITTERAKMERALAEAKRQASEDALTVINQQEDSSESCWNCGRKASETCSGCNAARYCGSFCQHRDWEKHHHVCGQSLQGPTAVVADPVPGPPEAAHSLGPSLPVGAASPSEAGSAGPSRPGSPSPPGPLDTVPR

compound: CC[C@@H]1C(=O)N(C)c2cnc(Nc3ccc(C(=O)NC4CCN(C)CC4)cc3OC)nc2N1C1CCCC1; assay: log2 fold change, soluble protein after heating vs DMSO (PISA); higher = thermal stabilisation; K562 lysate, 10 uM; active = over 0.2 and 3.5 SD of the protein, either way, in both replicates (recomputed)
Summary of the method: (§1)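 Following dounce homogenisation of K562 pellets in PBS pH 7.4 with 1 mM MgCl2, crude extract at 1 mg/mL protein was incubated for 30 min with 10 μM compound. Aliquots were then heated for 3 min over 48°C-58°C and pooled, NP-40 was added to 0.5% at 4°C, and soluble protein was recovered as the supernatant at 21,000xg for 90 min. Channel-sum-equalised TMTpro 16plex LC-MS/MS quantified this protein. Each value, from duplicates, is a log-two fold change in thermal stability relative to solvent controls.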

Question: For CASP2 (UniProt P42575), which log2 fold change is on record?
Answer: inactive: -0.005

Question: With CCDC50 isoform 2 (UniProt Q8IVM0) as the target, how does the log2 fold change read?
Answer: inactive: -0.056

Question: For CCDC58 (UniProt Q4VC31), which log2 fold change is on record?
Answer: inactive: 0.049

Question: With CARM1 (UniProt Q86X55) as the target, how does the log2 fold change read?
Answer: inactive: -0.054

Question: CCDC82 (UniProt Q8N4S0) was tested. Which log2 fold change did it give?
Answer: inactive: 0.017

Question: How did the log2 fold change turn out when CCDC57 (UniProt Q2TAC2) was run?
Answer: inactive: -0.1

Question: How did the log2 fold change turn out when CCT8 (UniProt P50990) was run?
Answer: inactive: -0.005

Question: For CCDC124 (UniProt Q96CT7), which log2 fold change is on record?
Answer: inactive: 0.006

Question: For CBX1 (UniProt P83916), which log2 fold change is on record?
Answer: inactive: 0.028

Question: With CCZ1 (UniProt P86791) as the target, how does the log2 fold change read?
Answer: inactive: -0.02

Question: Which log2 fold change does the source give for CCT3 (UniProt P49368) here?
Answer: inactive: 0.015

Question: Which log2 fold change does the source give for CBWD2 (UniProt Q8IUF1) here?
Answer: inactive: -0.085

Question: How did the log2 fold change turn out when CAT (UniProt P04040) was run?
Answer: inactive: 0.022

Question: CCNA2 (UniProt P20248) was tested. Which log2 fold change did it give?
Answer: inactive: 0.022

Question: How did the log2 fold change turn out when CBS (UniProt P35520) was run?
Answer: inactive: -0.035

Question: CCDC88C (UniProt Q9P219) was tested. Which log2 fold change did it give?
Answer: inactive: 0.213

Question: For CC2D1A (UniProt Q6P1N0), which log2 fold change is on record?
Answer: inactive: 0.05

Question: Which log2 fold change does the source give for CCDC90B (UniProt Q9GZT6) here?
Answer: inactive: -0.044

Question: Which log2 fold change does the source give for CARD8 isoform 5 (UniProt Q9Y2G2) here?
Answer: inactive: 0.095

Question: For CC2D1B isoform 2 (UniProt Q5T0F9), which log2 fold change is on record?
Answer: inactive: 0.095

Question: For CBFB isoform 2 (UniProt Q13951), which log2 fold change is on record?
Answer: inactive: -0.019

Question: For CD55 isoform 7 (UniProt P08174), which log2 fold change is on record?
Answer: inactive: -0.024

Question: Which log2 fold change does the source give for CCDC91 (UniProt Q7Z6B0) here?
Answer: inactive: 0.024

Question: With CCT7 (UniProt Q99832) as the target, how does the log2 fold change read?
Answer: inactive: 0.021

Question: How did the log2 fold change turn out when CBLB (UniProt Q13191) was run?
Answer: inactive: 0.083

Question: CD2AP (UniProt Q9Y5K6) was tested. Which log2 fold change did it give?
Answer: inactive: 0.037

Question: CCNL2 (UniProt Q96S94) was tested. Which log2 fold change did it give?
Answer: inactive: -0.052

Question: Which log2 fold change does the source give for CASTOR2 (UniProt A6NHX0) here?
Answer: inactive: 0.064

Question: How did the log2 fold change turn out when CD46 isoform 2 (UniProt P15529) was run?
Answer: inactive: 0.021

Question: For CD47 (UniProt Q08722), which log2 fold change is on record?
Answer: inactive: 0.019

Question: With CARS2 (UniProt Q9HA77) as the target, how does the log2 fold change read?
Answer: inactive: -0.082

Question: With CCNB1 (UniProt P14635) as the target, how does the log2 fold change read?
Answer: inactive: 0.03

Question: With CBFA2T3 (UniProt O75081) as the target, how does the log2 fold change read?
Answer: inactive: 0.003

compound: CC[C@@H]1C(=O)N(C)c2cnc(Nc3ccc(C(=O)N[C@H]4CC[C@H](N5CCN(CC6CC6)CC5)CC4)cc3OC)nc2N1C(C)C [volasertib]; assay: as above
Summary of the method: as §1

Question: Which log2 fold change does the source give for CASP2 (UniProt P42575) here?
Answer: inactive: 0.01

Question: Which log2 fold change does the source give for CCDC50 isoform 2 (UniProt Q8IVM0) here?
Answer: inactive: 0.011

Question: With CCDC58 (UniProt Q4VC31) as the target, how does the log2 fold change read?
Answer: inactive: 0.039

Question: Which log2 fold change does the source give for CARM1 (UniProt Q86X55) here?
Answer: inactive: -0.021

Question: CCDC82 (UniProt Q8N4S0) was tested. Which log2 fold change did it give?
Answer: inactive: -0.003

Question: For CCDC57 (UniProt Q2TAC2), which log2 fold change is on record?
Answer: inactive: 0.016

Question: For CCT8 (UniProt P50990), which log2 fold change is on record?
Answer: inactive: 0.016

Question: For CCDC124 (UniProt Q96CT7), which log2 fold change is on record?
Answer: inactive: 0.017

Question: Which log2 fold change does the source give for CBX1 (UniProt P83916) here?
Answer: inactive: 0.01

Question: For CCZ1 (UniProt P86791), which log2 fold change is on record?
Answer: inactive: -0.01

Question: With CCT3 (UniProt P49368) as the target, how does the log2 fold change read?
Answer: inactive: -0.004

Question: How did the log2 fold change turn out when CBWD2 (UniProt Q8IUF1) was run?
Answer: inactive: -0.019

Question: With CAT (UniProt P04040) as the target, how does the log2 fold change read?
Answer: inactive: 0.028

Question: How did the log2 fold change turn out when CCNA2 (UniProt P20248) was run?
Answer: inactive: -0.018

Question: With CBS (UniProt P35520) as the target, how does the log2 fold change read?
Answer: inactive: -0.003

Question: With CCDC88C (UniProt Q9P219) as the target, how does the log2 fold change read?
Answer: inactive: -0.061

Question: How did the log2 fold change turn out when CC2D1A (UniProt Q6P1N0) was run?
Answer: inactive: -0.032

Question: CCDC90B (UniProt Q9GZT6) was tested. Which log2 fold change did it give?
Answer: inactive: 0.047

Question: With CARD8 isoform 5 (UniProt Q9Y2G2) as the target, how does the log2 fold change read?
Answer: inactive: 0.036

Question: With CC2D1B isoform 2 (UniProt Q5T0F9) as the target, how does the log2 fold change read?
Answer: inactive: 0.007

Question: For CBFB isoform 2 (UniProt Q13951), which log2 fold change is on record?
Answer: inactive: 0.006

Question: Which log2 fold change does the source give for CD55 isoform 7 (UniProt P08174) here?
Answer: inactive: 0.03

Question: Which log2 fold change does the source give for CCDC91 (UniProt Q7Z6B0) here?
Answer: inactive: -0.003

Question: With CCT7 (UniProt Q99832) as the target, how does the log2 fold change read?
Answer: inactive: 0.008

Question: Which log2 fold change does the source give for CBLB (UniProt Q13191) here?
Answer: inactive: -0.014

Question: CD2AP (UniProt Q9Y5K6) was tested. Which log2 fold change did it give?
Answer: inactive: 0.012

Question: CCNL2 (UniProt Q96S94) was tested. Which log2 fold change did it give?
Answer: inactive: 0.04

Question: CASTOR2 (UniProt A6NHX0) was tested. Which log2 fold change did it give?
Answer: inactive: 0.005

Question: For CD46 isoform 2 (UniProt P15529), which log2 fold change is on record?
Answer: inactive: 0.011

Question: For CD47 (UniProt Q08722), which log2 fold change is on record?
Answer: inactive: 0.055

Question: Which log2 fold change does the source give for CARS2 (UniProt Q9HA77) here?
Answer: inactive: -0.071

Question: How did the log2 fold change turn out when CCNB1 (UniProt P14635) was run?
Answer: inactive: -0.043

Question: With CBFA2T3 (UniProt O75081) as the target, how does the log2 fold change read?
Answer: inactive: -0.02

compound: CCn1c(C(=O)N(C2CC2)C2CC2)cc2c3c(ncn3C)c(Nc3cc(C)n(C)n3)nc21; assay: as above
Summary of the method: as §1

Question: Which log2 fold change does the source give for CASP2 (UniProt P42575) here?
Answer: inactive: 0.007

Question: Which log2 fold change does the source give for CCDC50 isoform 2 (UniProt Q8IVM0) here?
Answer: inactive: -0.025

Question: How did the log2 fold change turn out when CCDC58 (UniProt Q4VC31) was run?
Answer: inactive: 0.016

Question: For CARM1 (UniProt Q86X55), which log2 fold change is on record?
Answer: inactive: -0.004

Question: CCDC82 (UniProt Q8N4S0) was tested. Which log2 fold change did it give?
Answer: inactive: 0.013

Question: With CCDC57 (UniProt Q2TAC2) as the target, how does the log2 fold change read?
Answer: inactive: -0.028

Question: With CCT8 (UniProt P50990) as the target, how does the log2 fold change read?
Answer: inactive: -0.021

Question: With CCDC124 (UniProt Q96CT7) as the target, how does the log2 fold change read?
Answer: inactive: 0.018

Question: With CBX1 (UniProt P83916) as the target, how does the log2 fold change read?
Answer: inactive: 0.006

Question: With CCZ1 (UniProt P86791) as the target, how does the log2 fold change read?
Answer: inactive: 0.044

Question: How did the log2 fold change turn out when CCT3 (UniProt P49368) was run?
Answer: inactive: -0.013

Question: With CBWD2 (UniProt Q8IUF1) as the target, how does the log2 fold change read?
Answer: inactive: 0.001

Question: With CAT (UniProt P04040) as the target, how does the log2 fold change read?
Answer: inactive: -0.038

Question: For CCNA2 (UniProt P20248), which log2 fold change is on record?
Answer: inactive: -0.03

Question: CBS (UniProt P35520) was tested. Which log2 fold change did it give?
Answer: inactive: 0.02

Question: For CCDC88C (UniProt Q9P219), which log2 fold change is on record?
Answer: inactive: 0.011

Question: CC2D1A (UniProt Q6P1N0) was tested. Which log2 fold change did it give?
Answer: inactive: -0.009

Question: CCDC90B (UniProt Q9GZT6) was tested. Which log2 fold change did it give?
Answer: inactive: 0.013

Question: CARD8 isoform 5 (UniProt Q9Y2G2) was tested. Which log2 fold change did it give?
Answer: inactive: -0.003

Question: For CC2D1B isoform 2 (UniProt Q5T0F9), which log2 fold change is on record?
Answer: inactive: -0.012

Question: For CBFB isoform 2 (UniProt Q13951), which log2 fold change is on record?
Answer: inactive: 0.008

Question: CD55 isoform 7 (UniProt P08174) was tested. Which log2 fold change did it give?
Answer: inactive: -0.074

Question: CCDC91 (UniProt Q7Z6B0) was tested. Which log2 fold change did it give?
Answer: inactive: -0.03

Question: CCT7 (UniProt Q99832) was tested. Which log2 fold change did it give?
Answer: inactive: -0.01

Question: With CBLB (UniProt Q13191) as the target, how does the log2 fold change read?
Answer: inactive: -0.158

Question: Which log2 fold change does the source give for CD2AP (UniProt Q9Y5K6) here?
Answer: inactive: -0.026

Question: Which log2 fold change does the source give for CCNL2 (UniProt Q96S94) here?
Answer: inactive: 0.021

Question: Which log2 fold change does the source give for CASTOR2 (UniProt A6NHX0) here?
Answer: inactive: -0.011

Question: Which log2 fold change does the source give for CD46 isoform 2 (UniProt P15529) here?
Answer: inactive: 0.029

Question: Which log2 fold change does the source give for CD47 (UniProt Q08722) here?
Answer: inactive: -0.037

Question: CARS2 (UniProt Q9HA77) was tested. Which log2 fold change did it give?
Answer: inactive: -0.001

Question: For CCNB1 (UniProt P14635), which log2 fold change is on record?
Answer: inactive: -0.031

Question: With CBFA2T3 (UniProt O75081) as the target, how does the log2 fold change read?
Answer: inactive: -0.007
